The assay addresses C-terminal APEX2-tagged NELFB WT (mouse) (UniProt Q8C4Y3). Description: proximity labelling; stable MEF lines with C-terminal APEX2-tagged NELFB (WT, MT144, MT194); NELFB-AID degraded by IAA before labelling; biotin-phenol 30 min, 1 mM H2O2 1 min; streptavidin bead pull-down of the lysate, Western blotting; control cells without H2O2. For orientation: A western blot detects proteins with antibodies after separation by electrophoresis.

Amino acid sequences for entries named in this document (tags omitted). A change or cut given only in a name is not applied to a line headed by its entry. Chains listed by the source or under a name are the forms on record and can include a tag or linker.
C-terminal APEX2-tagged NELFB WT (Q8C4Y3, form named): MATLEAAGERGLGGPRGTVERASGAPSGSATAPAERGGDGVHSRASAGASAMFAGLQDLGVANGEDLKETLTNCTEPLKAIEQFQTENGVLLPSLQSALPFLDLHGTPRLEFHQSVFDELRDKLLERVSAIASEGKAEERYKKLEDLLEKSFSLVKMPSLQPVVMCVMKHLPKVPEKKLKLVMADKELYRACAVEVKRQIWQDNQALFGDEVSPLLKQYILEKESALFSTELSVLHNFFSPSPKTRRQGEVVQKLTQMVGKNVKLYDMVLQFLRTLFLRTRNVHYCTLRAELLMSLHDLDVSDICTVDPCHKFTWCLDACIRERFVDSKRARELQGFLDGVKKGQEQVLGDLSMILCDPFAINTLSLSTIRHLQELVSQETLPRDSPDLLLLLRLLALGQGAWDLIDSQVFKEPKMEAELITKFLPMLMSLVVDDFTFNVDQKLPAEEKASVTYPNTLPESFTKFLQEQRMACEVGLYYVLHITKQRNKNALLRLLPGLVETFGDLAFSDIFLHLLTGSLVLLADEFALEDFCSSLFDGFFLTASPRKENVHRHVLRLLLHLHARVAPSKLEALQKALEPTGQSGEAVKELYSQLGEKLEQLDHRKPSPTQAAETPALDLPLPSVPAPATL
UniProt P42337: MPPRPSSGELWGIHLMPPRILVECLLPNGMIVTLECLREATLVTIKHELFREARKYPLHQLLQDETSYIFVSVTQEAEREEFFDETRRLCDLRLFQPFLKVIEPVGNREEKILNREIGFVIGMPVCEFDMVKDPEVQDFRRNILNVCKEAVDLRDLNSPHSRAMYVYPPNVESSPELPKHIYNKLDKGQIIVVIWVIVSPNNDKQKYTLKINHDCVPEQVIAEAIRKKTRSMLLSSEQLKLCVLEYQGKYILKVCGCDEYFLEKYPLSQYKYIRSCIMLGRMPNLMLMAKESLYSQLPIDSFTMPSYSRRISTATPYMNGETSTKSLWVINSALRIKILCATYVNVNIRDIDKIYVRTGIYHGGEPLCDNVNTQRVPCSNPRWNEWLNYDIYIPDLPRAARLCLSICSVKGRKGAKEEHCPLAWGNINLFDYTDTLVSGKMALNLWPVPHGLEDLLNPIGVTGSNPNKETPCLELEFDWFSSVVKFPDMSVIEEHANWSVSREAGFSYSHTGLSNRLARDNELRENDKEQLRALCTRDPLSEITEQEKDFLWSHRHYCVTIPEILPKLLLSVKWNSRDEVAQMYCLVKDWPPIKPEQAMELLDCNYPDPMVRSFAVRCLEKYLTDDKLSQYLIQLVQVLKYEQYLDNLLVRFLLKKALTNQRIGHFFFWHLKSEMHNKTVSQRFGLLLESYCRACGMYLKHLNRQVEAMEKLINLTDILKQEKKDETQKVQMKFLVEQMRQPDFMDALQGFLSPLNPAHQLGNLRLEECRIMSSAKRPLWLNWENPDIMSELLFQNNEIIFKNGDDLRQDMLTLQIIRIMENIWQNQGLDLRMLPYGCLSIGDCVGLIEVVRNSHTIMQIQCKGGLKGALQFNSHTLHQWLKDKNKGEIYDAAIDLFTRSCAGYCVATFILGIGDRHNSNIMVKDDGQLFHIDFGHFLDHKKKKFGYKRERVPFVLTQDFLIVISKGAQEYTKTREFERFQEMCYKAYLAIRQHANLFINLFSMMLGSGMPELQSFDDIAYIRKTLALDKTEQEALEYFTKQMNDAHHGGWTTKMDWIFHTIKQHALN

These are yes or no findings as the source states them, for the method shown. Binding seen in cells or lysates may run through a third protein. A yes stands for co-enrichment or nearness to the bait. Other partners may have been found.

On to “PI3Kα (PI3 Kinase p110α) (from UniProt P42337 1-1068) (enzyme)”, for which the binding entry is on record as “binds”.

The values are drawn from PMC10591015.
